Measured values published in paper PMC7819943, “Rice protein-binding microarrays: a tool to detect cis-acting elements near promoter regions in rice”.
The other results are listed elsewhere or left out.

By UniProt entry, the sequences of proteins in these tests, tags left out.
UniProt Q0JBA9, entry or part of it: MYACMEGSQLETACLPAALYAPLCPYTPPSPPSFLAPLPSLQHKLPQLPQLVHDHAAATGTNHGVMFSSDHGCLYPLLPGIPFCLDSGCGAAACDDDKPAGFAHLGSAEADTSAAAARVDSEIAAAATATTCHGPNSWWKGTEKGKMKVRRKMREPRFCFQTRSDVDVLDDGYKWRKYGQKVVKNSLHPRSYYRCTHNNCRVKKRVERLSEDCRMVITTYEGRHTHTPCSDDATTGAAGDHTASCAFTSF

The sequences below were run against OsWRKY34 (Oryza sativa, UniProt Q0JBA9 1-250) (assay: protein-binding microarray (RPBM); PBS, 2% BSA, 51.3 ng/ul salmon testes DNA, 50 uM zinc acetate, 200 nM TF, 25 C, 1 h; high values mean tight binding). Conditions: protein: recombinant; tags: N-terminal polyhistidine and DsRed monomer fusion (pET32a); label: CyDye5-dUTP incorporated in the synthesized complementary strand; 3' TTTTT single-stranded linker to array surface; dsDNA, one strand shown.
Summary of the method: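 A custom Agilent array was converted to double-stranded form by primer extension with Cy5-dUTP and blocked with 2% BSA. Protein at 200 nM in PBS with 2% BSA, salmon testes DNA and 50 µM zinc acetate was applied for 1 h at 25 °C, followed by washing. The proteins were polyhistidine–DsRed N-terminal fusions of transcription factors, expressed in E. coli BL21-CodonPlus and Ni–NTA-purified. The binding signal is per-feature fluorescence intensity (arbitrary units) from an Axon 4000B scanner.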

Sequence | binding signal
TATTTTTTACCCGGCCTCAACATCCAACTGGGATATTTTACGGAGTCACCTAGTGCAG | 10600 fluorescence intensity (a.u.)
TGGAGATGAGTATGCACTAACCTGCCTATATTTTTTTTCTCGGAGTCACCTAGTGCAG | 9450 fluorescence intensity (a.u.)
CTTCCTCCGTCACCATCAGCTCCCCGCGCGCGCGTGCATACGGAGTCACCTAGTGCAG | 9440 fluorescence intensity (a.u.)
CCCATCTCGAGTGCCATCCTCTTCTCAATGAGAGTAACCACGGAGTCACCTAGTGCAG | 8220 fluorescence intensity (a.u.)
GTTTCTGTACTTGCAACCCTCAGTTTGATGAGCGAGTCCACGGAGTCACCTAGTGCAG | 8890 fluorescence intensity (a.u.)
CGGCGGCGAGTAGGGCCAGCGCTCGAGCGTGGTGGGGCGGCGGAGTCACCTAGTGCAG | 8370 fluorescence intensity (a.u.)
CGGTTTGGTTTCGATTTATTTTAGAATTTTGGCACTTTTCCGGAGTCACCTAGTGCAG | 10800 fluorescence intensity (a.u.)
AGTGTACTTTTCCCTTCCTTGTTTGTGAGCTCACCGAGCTCGGAGTCACCTAGTGCAG | 8410 fluorescence intensity (a.u.)
CCAGTGGGCGGGCTCTCTCCCTCTTCCTCCTCCGCTCCGCCGGAGTCACCTAGTGCAG | 10000 fluorescence intensity (a.u.)
AGCTGTGTTTTTCAGCTTCTAGGTTCTAGTTCGTTTTTTGCGGAGTCACCTAGTGCAG | 10400 fluorescence intensity (a.u.)
GATTCCCGATTCGCAGTCGGTTCTCTGGTCGCCTACATATCGGAGTCACCTAGTGCAG | 8800 fluorescence intensity (a.u.)
CCTAATCATCCCTATCAACACACCTAAGCTCACCAAATTCCGGAGTCACCTAGTGCAG | 8620 fluorescence intensity (a.u.)
ATCATCCATATCCAGCTATACTATACTACTCGATCCCTTCCGGAGTCACCTAGTGCAG | 10200 fluorescence intensity (a.u.)
CACGACACGCATGAAGCACCTTGCAACCACCACCGTCCTCCGGAGTCACCTAGTGCAG | 8200 fluorescence intensity (a.u.)
TTTGGGGTTTGAGAAGGTTGAGGAGGAGTTGGGAGGTTGACGGAGTCACCTAGTGCAG | 9580 fluorescence intensity (a.u.)
AATCCCTATTGCCTACAAATGCACGTTCACATTGTCGTCACGGAGTCACCTAGTGCAG | 8890 fluorescence intensity (a.u.)
TTCTGAATGTGATCACCTGACAAATTTGTTCAGAGTTATCCGGAGTCACCTAGTGCAG | 9600 fluorescence intensity (a.u.)
TCTCGAACGTTCTATTTTAATTTCCCTGACACGTTCGTCTCGGAGTCACCTAGTGCAG | 8790 fluorescence intensity (a.u.)
AGTTTTTGGTAGTTTAGTTTGATACACCACTTCGTTTGATCGGAGTCACCTAGTGCAG | 18600 fluorescence intensity (a.u.)
AGCATTTACGCGTGGTCTCTGAAGTATATAACGGTCTGTCCGGAGTCACCTAGTGCAG | 8140 fluorescence intensity (a.u.)
ATCACAGGCAAAATCAACGATGAACTTGGAAGGGTAGGGTCGGAGTCACCTAGTGCAG | 8360 fluorescence intensity (a.u.)

Sequence | binding signal
GCTCTACAATACTCCCTTTGTTCCAAAATACCTTTTGTTCCGGAGTCACCTAGTGCAG | 11000 fluorescence intensity (a.u.)
GTCCCATTTCGGTATTCAACTATTTCTATTTTCTCCTCTCCGGAGTCACCTAGTGCAG | 9860 fluorescence intensity (a.u.)
ATAATCCTTGTCTTTTTGTTTGCTTGATGTCGTATCGTGTCGGAGTCACCTAGTGCAG | 9360 fluorescence intensity (a.u.)
CAGTGGGATCAGACGTAGACGCGTGGTGTGGTTGTATTTTCGGAGTCACCTAGTGCAG | 13600 fluorescence intensity (a.u.)
ACCTTGACGCCTTGTTATGTGTAGTCTTATTAATATACTACGGAGTCACCTAGTGCAG | 8680 fluorescence intensity (a.u.)
GCCCGCTGTTTTTCTCTCTCCTTATTTAACTTCTTAAAATCGGAGTCACCTAGTGCAG | 9470 fluorescence intensity (a.u.)
CGTATCCTTTTTGCTTTTCATAAAGTTCACCTTCTTTTCCCGGAGTCACCTAGTGCAG | 12100 fluorescence intensity (a.u.)
GTGCATGTGTAGGGAGGGCACAATGGAGGGGTGTTTTTTTCGGAGTCACCTAGTGCAG | 15000 fluorescence intensity (a.u.)
TGTACACCTCTCCCACACTCCTTGCTCTCTCGTTTGCTCTCGGAGTCACCTAGTGCAG | 8090 fluorescence intensity (a.u.)
GGGGTGAGGTGGGAGGGCGGCGCCGCGATGGCCACCGGCGCGGAGTCACCTAGTGCAG | 8440 fluorescence intensity (a.u.)
CCTGCCGCGATCATGCCACACGACCACCTGCAGTCGTCCTCGGAGTCACCTAGTGCAG | 8250 fluorescence intensity (a.u.)
CCTCACCGCCGTCTCACCGCAGTTGCCACCCTCACCTTTGCGGAGTCACCTAGTGCAG | 8370 fluorescence intensity (a.u.)
TAAATTATTTTCTATTTATAAATATGTCGTTTGCCTTATTCGGAGTCACCTAGTGCAG | 8080 fluorescence intensity (a.u.)
TCCAACCGCAATATCCGTTCCGCTGCGGTGCGTTGCCACTCGGAGTCACCTAGTGCAG | 9030 fluorescence intensity (a.u.)
CTTTGCCTTGATTGGATCAGCTAGTCCTTCGTTTGAGTCCCGGAGTCACCTAGTGCAG | 8510 fluorescence intensity (a.u.)
TAGCTGCTGCTGCTGTTGTACCCTGAGGTTCTAGTTTACACGGAGTCACCTAGTGCAG | 9500 fluorescence intensity (a.u.)
CGCACGCTCTCGCATCCTCGCGTTTCATCCTCCTGTCCGTCGGAGTCACCTAGTGCAG | 8820 fluorescence intensity (a.u.)
TTGCCCACTTGTTCACGCTATTTAAAGCCTAGTAACACGCCGGAGTCACCTAGTGCAG | 9400 fluorescence intensity (a.u.)
GACCGCGAGCATGATGCAGCGCCGCGCCTGCTATACTCCACGGAGTCACCTAGTGCAG | 8360 fluorescence intensity (a.u.)
TCTCATCACTCTTCACCCGCCGCGCCGCGAACTCCGGAACCGGAGTCACCTAGTGCAG | 8630 fluorescence intensity (a.u.)
ATTCATGTCAGAATCCTGTGTTTTTCCTATTCCTCTGTTTCGGAGTCACCTAGTGCAG | 9350 fluorescence intensity (a.u.)

Nothing new here: an excerpt of the list.
Sequence | binding signal
AATCCCTATTGCCTACAAATGCACGTTCACATTGTCGTCACGGAGTCACCTAGTGCAG | 8890 fluorescence intensity (a.u.)
TTCTGAATGTGATCACCTGACAAATTTGTTCAGAGTTATCCGGAGTCACCTAGTGCAG | 9600 fluorescence intensity (a.u.)
TCTCGAACGTTCTATTTTAATTTCCCTGACACGTTCGTCTCGGAGTCACCTAGTGCAG | 8790 fluorescence intensity (a.u.)
AGTTTTTGGTAGTTTAGTTTGATACACCACTTCGTTTGATCGGAGTCACCTAGTGCAG | 18600 fluorescence intensity (a.u.)
AGCATTTACGCGTGGTCTCTGAAGTATATAACGGTCTGTCCGGAGTCACCTAGTGCAG | 8140 fluorescence intensity (a.u.)
ATCACAGGCAAAATCAACGATGAACTTGGAAGGGTAGGGTCGGAGTCACCTAGTGCAG | 8360 fluorescence intensity (a.u.)
GCTCTACAATACTCCCTTTGTTCCAAAATACCTTTTGTTCCGGAGTCACCTAGTGCAG | 11000 fluorescence intensity (a.u.)
